From ChEMBL document CHEMBL3988442, “University of Dundee, Small-Polar-MMV Screening Library” (2021).

Chains of the proteins cited; added tags and fusions are not shown.
UniProt E9BF75, entry or part of it: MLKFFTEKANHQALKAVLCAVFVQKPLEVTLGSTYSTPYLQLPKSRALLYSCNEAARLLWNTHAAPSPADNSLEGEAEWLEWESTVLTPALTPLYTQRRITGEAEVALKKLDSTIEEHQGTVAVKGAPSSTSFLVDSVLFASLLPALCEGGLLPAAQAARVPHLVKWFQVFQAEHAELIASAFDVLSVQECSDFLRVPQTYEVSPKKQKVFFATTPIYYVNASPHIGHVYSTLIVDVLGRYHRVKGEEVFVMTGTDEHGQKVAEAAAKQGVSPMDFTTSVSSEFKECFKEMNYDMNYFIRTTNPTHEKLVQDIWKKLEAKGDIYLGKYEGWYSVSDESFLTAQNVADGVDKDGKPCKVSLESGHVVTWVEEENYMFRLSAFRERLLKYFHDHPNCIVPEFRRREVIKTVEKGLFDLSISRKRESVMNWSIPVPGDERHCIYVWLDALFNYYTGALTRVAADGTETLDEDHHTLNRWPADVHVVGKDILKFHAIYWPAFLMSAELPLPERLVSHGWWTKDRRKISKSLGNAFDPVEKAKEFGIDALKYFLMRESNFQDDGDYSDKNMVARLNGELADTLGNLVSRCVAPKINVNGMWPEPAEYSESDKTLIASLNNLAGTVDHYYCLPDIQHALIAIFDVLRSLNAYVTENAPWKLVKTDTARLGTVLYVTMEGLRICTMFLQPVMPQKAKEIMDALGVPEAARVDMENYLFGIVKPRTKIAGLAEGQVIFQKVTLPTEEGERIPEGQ

Mtb heat-shock: 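Assay on Mycobacterium tuberculosis, filed only as a heat shock assay from Cornell; the read-out is not stated. The concentration is filed as 10 mM, unlikely as a test dose, so the dose is not known. The record gives no direction; compounds that gave an IC50 in retests scored well above the rest, so higher reads as stronger inhibition. Of about 69,000 compounds tested this way, about 930 (1.4%) reached 50% or more in at least one test.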
LdMetRS: 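Methionyl-tRNA synthetase (putative), Leishmania donovani (UniProt E9BF75). Primary screen of methionyl-tRNA synthetase; the read-out is not stated. The test concentration is not given. Values are per cent inhibition. Of about 68,000 compounds tested this way, about 24 (0.035%) reached 50% or more in at least one test.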
Mtb growth Cornell: 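Whole-cell assay for inhibitors of Mycobacterium tuberculosis growth, labelled Cornell in the record; the read-out is not stated. The concentration is filed as 10 mM, unlikely as a test dose, so the dose is not known. Higher means stronger inhibition (inferred from two other growth screens of the library). About 53,000 compounds were tested under these conditions; 1.7% (about 900) showed 50% or more at least once.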

All values are in %. The controls that fix the scale are not given in the record; negative values are as filed. Compounds were drawn at random from those tested, without regard to their results.

* CCOCCOC(C)C(=O)NCc1cn2cc(Cl)ccc2n1 (stereo unspecified) | Mtb heat-shock: -7.869%; LdMetRS: 8.488%; Mtb growth Cornell: -12.07%
* CC1CN(Cc2ccccc2Cn2cccn2)CCN1C (stereo unspecified) | Mtb heat-shock: -10.98%; LdMetRS: 5.155%; Mtb growth Cornell: 12.34%
* CCc1ccc(S(=O)(=O)Nc2ccncc2)s1 | Mtb heat-shock: 10.1%; LdMetRS: 22.63%; Mtb growth Cornell: 31.51%
* Cc1ccc2c(c1)C(=O)NCC1(CCN(C(=O)c3ccccn3)CC1)O2 | Mtb heat-shock: -15.54%; LdMetRS: 9.709%; Mtb growth Cornell: -111.5%
* COCC1CN(C(=O)c2cccc(C)n2)Cc2ncnn2C1 (stereo unspecified) | Mtb heat-shock: -2.566%; LdMetRS: 13.98%; Mtb growth Cornell: -7.481%
* Cc1cccc(-n2cc(CNc3ncnc4c3CCNCC4)cn2)c1 | Mtb heat-shock: 15.02%; LdMetRS: 18.82%; Mtb growth Cornell: -5.822%
* CC(Cc1cccc(F)c1)C(=O)NS(=O)(=O)c1cnn(C)c1 (stereo unspecified) | Mtb heat-shock: -175.6%; LdMetRS: 18.43%
* O=c1cc(Cn2cncn2)nc2n1CCCN(Cc1ccsc1)C2 | Mtb heat-shock: -6.711%; LdMetRS: 17%; Mtb growth Cornell: 11.72%
* CCc1oc(C(=O)N[C@@H]2c3ccccc3C[C@@H]2O)cc1CN1CCCC1 | Mtb heat-shock: -0.6862%; LdMetRS: 14.09%; Mtb growth Cornell: -7.543%
* O=C(O)C(F)(F)F.[H][C@]12CC[C@@]3(N=C(CC)NC3=O)[C@@]1([H])CN(Cc1ccccc1C)C2 | Mtb heat-shock: -23.61%; Mtb growth Cornell: 20.17%
* Cc1cc(C(=O)N2CCc3[nH]cnc3C2C(=O)O)c(-c2ccccc2)o1 (stereo unspecified) | Mtb heat-shock: -14.03%; LdMetRS: 12.29%; Mtb growth Cornell: -10.84%
* O=C(CCOc1ccccc1F)N1CCCC(n2cncn2)C1 (stereo unspecified) | Mtb heat-shock: 4.417%; LdMetRS: 18.7%
* COc1cccc(-c2cc(C(=O)Nc3nc[nH]n3)[nH]n2)c1 | Mtb heat-shock: 1.139%; LdMetRS: 13.28%; Mtb growth Cornell: -17.22%
* Cc1nn(C)c(Cl)c1C1CCCN1c1ncnc2sccc12 (stereo unspecified) | Mtb heat-shock: -5.669%; LdMetRS: 13.66%; Mtb growth Cornell: 9.275%
* CCN(C)CC(=O)N1CCC(c2cc(N3CCOCC3)nc(C)n2)CC1 | Mtb heat-shock: 5.25%; LdMetRS: 19.23%
* CC(C(=O)N1CCC(Cc2ccc(F)cc2)CC1)n1ccnc1 (stereo unspecified) | Mtb heat-shock: 8.805%; LdMetRS: 12.85%; Mtb growth Cornell: -14.3%
* Cc1nn(C)cc1CN1CCc2c(nc(-c3ccccn3)[nH]c2=O)C1 | Mtb heat-shock: 2.88%; LdMetRS: 12.5%; Mtb growth Cornell: 10.94%
* Cc1nc([C@@H]2C[C@@H]3CCN(Cc4cnn(C)c4)C[C@H]3O2)sc1C | LdMetRS: 8.065%
* CC(=O)N1CCN(c2ccnc3c(F)cc(Br)cc23)CC1 | Mtb heat-shock: 10.11%; LdMetRS: 14.78%
* Cc1cc(N2C[C@H](C3CC3)[C@@H](N)C2)nc(N2CCCCC2)n1 | Mtb heat-shock: 0.8077%; LdMetRS: 23.71%
* Cc1nc(CN2CCN(c3ccc(SC(C)C)nn3)CC2)cs1 | Mtb heat-shock: -21.68%; LdMetRS: 4.396%; Mtb growth Cornell: -24.18%
* Nc1nc(CN2CCOC(Cn3cccn3)C2)nc2ccccc12 (stereo unspecified) | Mtb heat-shock: 12.95%; LdMetRS: 23.76%
* Cn1nccc1C(=O)NC(C)(C)c1noc(C(C)(C)C)n1 | Mtb heat-shock: 9.751%; LdMetRS: 7.219%
* CCc1ccc(CN2C[C@@H](C)C3(CCN(CC(=O)N(C)C)C3=O)C2)o1 (stereo partly specified) | LdMetRS: 14.01%
* Cc1c(NCc2ccccc2C#N)cccc1S(=O)(=O)NC1CC1 | Mtb heat-shock: 92.24%; LdMetRS: 7.986%; Mtb growth Cornell: 18.45%
* CN1CCC(n2nc(Cc3cccc(Cl)c3)nc2Cn2ccnc2)CC1 | Mtb heat-shock: -17.38%; LdMetRS: 17.74%; Mtb growth Cornell: 5.986%
* C[C@H]1C[C@H]2CN(Cc3ccccn3)CC[C@@H]2O1 | LdMetRS: 8.667%
* [H][C@@]12CN(C(=O)[C@H]3CCCO3)C[C@]1([H])C(=O)N(CCOC)C2 | Mtb heat-shock: -0.2686%; Mtb growth Cornell: 11.75%
* O=S(=O)(NCc1ccccc1)N1CCN(c2ncccn2)CC1 | Mtb heat-shock: -26.27%; LdMetRS: 12.72%; Mtb growth Cornell: -0.8179%
* CCc1noc(C(C)N2CCOCC2)n1 (stereo unspecified) | Mtb heat-shock: -5.001%; LdMetRS: 16.78%

The last 2 entries again:

Result for O=S(=O)(NCc1ccccc1)N1CCN(c2ncccn2)CC1 was Mtb heat-shock: -26.27%; LdMetRS: 12.72%; Mtb growth Cornell: -0.8179%.
Result for CCc1noc(C(C)N2CCOCC2)n1 (stereo unspecified) was Mtb heat-shock: -5.001%; LdMetRS: 16.78%.